Data as given in PubChem BioAssay AID652259 (Drosophila RNAi Screening Center, 2013)
The screen tested about 22,000 reagents; shown is an unselected part of those with a known target gene and a result. In the full data, 233 (1.1%) were called active. 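Light values are raw, unnormalised plate reads; the ratio scores behind the reporter calls were not deposited.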 A plus sign joins genes that one reagent is predicted to hit. Not stated in the record: the amount of reagent, the time to read-out, the dose of the treatment.

Assay: 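Identify new Wingless signalling regulators in fly cells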 (primary screen)
Cell system: Drosophila clone 8 imaginal disc epithelial cells
Reagent: long dsRNA against Drosophila genes
Conditions: pathway stimulated by co-transfected Wingless expression plasmid
Measurement: 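Firefly luciferase from a tcf-site Wingless reporter, measured alongside co-transfected Renilla luciferase that tracks transfection; pathway stimulated by a Wingless plasmid; the firefly-to-Renilla ratio is not deposited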
Direction: firefly reporter light: higher = more Wg reporter light, before normalisation; Renilla control light: higher = more transfected or surviving cells
Call rule: 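Strong candidates differ from their plate mean by at least two out of four per-plate statistical tests; weak candidates meet just one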
Meaning of the calls: active = candidate regulator (raises or lowers reporter); inactive = not a candidate

gene	DRSC id	firefly reporter light, replicate 1	firefly reporter light, replicate 2	Renilla control light, replicate 1	Renilla control light, replicate 2	outcome
PSMG1 (Proteasome assembly chaperone 1)	DRSC12297	5942		1952		inactive
CG31050	DRSC13883	4012		2103		inactive
PGAP2 (Post-GPI attachment to proteins 2)	DRSC00632	4296		2474		inactive
Skp2 + CG1103	DRSC12160	7794		4290		inactive
Skp2 + CG1103	DRSC22356	4.84e5	4.95e5	1.56e5	1.63e5	inactive
CG33648	DRSC01387	19259		10336		inactive
CG13984	DRSC02316	2826	10342	216	4154	inactive
mmd (mind-meld)	DRSC19672	25760		8061		inactive
mmd (mind-meld)	DRSC19673	17389		9040		inactive
mmd (mind-meld)	DRSC20161	14323		9175		inactive
CG12126	DRSC06103	3837	13766	1085	4012	inactive
Ufd1 (Ubiquitin fusion-degradation 1-like)	DRSC10607	6336		3480		inactive
Muc55B (Mucin 55B)	DRSC21440	6.66e5	7.43e5	4.01e5	3.13e5	inactive

Next part, starting with the last 2 of the part before.
gene	DRSC id	firefly reporter light, replicate 1	firefly reporter light, replicate 2	Renilla control light, replicate 1	Renilla control light, replicate 2	outcome
Ufd1 (Ubiquitin fusion-degradation 1-like)	DRSC10607	6336		3480		inactive
Muc55B (Mucin 55B)	DRSC21440	6.66e5	7.43e5	4.01e5	3.13e5	inactive
EloA (Elongin A)	DRSC16109	1444	4422	730	1843	inactive
CG33272	DRSC09116	2496		1287		inactive
CG10332 (retired record) + IM18	DRSC04064	3508	10325	755	3024	inactive
Targ (Tarag)	DRSC06206	5689		2483		inactive
PIG-K (Phosphatidylinositol glycan anchor biosynthesis class K)	DRSC18496	15878		9627		inactive
UQCR-C2 (Ubiquinol-cytochrome c reductase core protein 2)	DRSC10405	9072		2977		inactive
mRpS18C (mitochondrial ribosomal protein S18C)	DRSC16538	11493		3296		inactive
CG43335	DRSC15764	13302		3751		inactive
CG43335	DRSC22671	4.55e5	4.73e5	2.05e5	1.23e5	inactive
egh (egghead)	DRSC18771	21993		9773		inactive
phol (pleiohomeotic like)	DRSC10367	4480		1784		inactive
Elp4 (Elongator complex protein 4)	DRSC02999	2162	2968	726	561	inactive
Send1 (Spermathecal endopeptidase 1)	DRSC00482	2522	3610	1122	1878	inactive
Gnmt (Glycine N-methyltransferase)	DRSC15987	14157		4348		inactive
CG7341	DRSC10818	3452		1137		inactive
Boh2 (Buddy of Hmr 2)	DRSC02777	3233	6669	1013	2713	inactive
